PubChem BioAssay AID1224830, NIAID, 2016

- Screen: 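Genes whose knock-down alters the TNF-alpha reporter response to LPS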 (primary screen)
- System: human THP-1 monocytic leukaemia cells, TNF dual-luciferase reporter clone, PMA-differentiated to macrophage-like cells
- Knock-down reagent: siRNA pool against human genes, 50 nM
- Duration: LPS for 4 h, given about 3 days after siRNA transfection
- Challenge: bacterial LPS (TLR4 ligand), 10 ng/ml
- Detection: 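Ratio of firefly to renilla light, scaled to the plate median and expressed as a robust z-score per replicate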
- Scale: TNF reporter robust z-score: higher = stronger TNF reporter response to LPS
- Active means: 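Each well counts as active if its z-score is over 2.8 or under -1.5; controls are left without a call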
The whole screen tested about 18,000 reagents; below is a part drawn at random. In the full data, about 2,900 (16%) got an active call. 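Calls are made per well; low scores hint the gene aids the LPS response, high scores that it dampens it.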 A number with no mark means an inactive call. Repeated entries: four replicate wells of each siRNA pool. Reagent sequences are not shown.

Against MLANA, the entry reads TNF reporter robust z-score -0.68. After knock-down of MLANA, the record shows TNF reporter robust z-score -0.11. MLANA showed TNF reporter robust z-score -0.23. Against MLANA the deposit lists TNF reporter robust z-score -0.05. GATA2 scored TNF reporter robust z-score -0.5. GATA2 gave TNF reporter robust z-score 0.06.

For GATA2, the entry reads TNF reporter robust z-score -0.19. After knock-down of GATA2, the screen gave TNF reporter robust z-score 0.84. For PCDHA9, the entry reads TNF reporter robust z-score -0.28. After knock-down of PCDHA9 the results were TNF reporter robust z-score 0.84. For PCDHA9, the values are TNF reporter robust z-score 0.39. Against PCDHA9 the deposit lists TNF reporter robust z-score -0.49.

After knock-down of VSIG2, the record shows TNF reporter robust z-score 0.4. Against VSIG2, the values are TNF reporter robust z-score -0.63. Knock-down of VSIG2 came out at: TNF reporter robust z-score 0.39. Depletion of VSIG2 gave: TNF reporter robust z-score 0.66.

5 entries from above in another layout:
{"gene knocked down": "MLANA", "TNF reporter robust z-score": -0.23}
{"gene knocked down": "MLANA", "TNF reporter robust z-score": -0.05}
{"gene knocked down": "GATA2", "TNF reporter robust z-score": -0.5}
{"gene knocked down": "GATA2", "TNF reporter robust z-score": 0.06}
{"gene knocked down": "GATA2", "TNF reporter robust z-score": -0.19}

More entries follow.
For GTPBP6 the deposit lists TNF reporter robust z-score -0.54. Against GTPBP6, the entry reads TNF reporter robust z-score -0.23. Knock-down of GTPBP6 came out at: TNF reporter robust z-score -0.78. With knock-down of GTPBP6 the results were TNF reporter robust z-score -1.26. TRAF7 gave TNF reporter robust z-score -1.18. Against TRAF7, the values are TNF reporter robust z-score -1.19.

TRAF7 showed TNF reporter robust z-score -0.7. Knock-down of TRAF7 came out at: TNF reporter robust z-score 0.32. For MACROH2A2, the values are TNF reporter robust z-score -0.84. With knock-down of MACROH2A2, the screen gave TNF reporter robust z-score -0.76. Depletion of MACROH2A2 gave: TNF reporter robust z-score -1.03. MACROH2A2 showed TNF reporter robust z-score -0.74.

Against METTL17, the entry reads TNF reporter robust z-score -0.82. For METTL17, the entry reads TNF reporter robust z-score -0.21. METTL17 showed TNF reporter robust z-score -0.39. After knock-down of METTL17 the results were TNF reporter robust z-score 0.77. OR2H1 gave TNF reporter robust z-score 1.2. After knock-down of OR2H1 the results were TNF reporter robust z-score 0.56.

Depletion of OR2H1 gave: TNF reporter robust z-score 0.68. Silencing of OR2H1 came out at: TNF reporter robust z-score -0.91. Knock-down of HMG20A resulted in: TNF reporter robust z-score -1.62 (active). After knock-down of HMG20A the results were TNF reporter robust z-score -0.64. HMG20A gave TNF reporter robust z-score 0.12. After knock-down of HMG20A, the record shows TNF reporter robust z-score -0.06.

BIVM gave TNF reporter robust z-score 1.3. After knock-down of BIVM the results were TNF reporter robust z-score 1.5. Depletion of BIVM came out at: TNF reporter robust z-score 1.01. BIVM gave TNF reporter robust z-score 0.85. RPS10 showed TNF reporter robust z-score 0.23. With knock-down of RPS10, the screen gave TNF reporter robust z-score -0.11.

RPS10 showed TNF reporter robust z-score -0.72. Silencing of RPS10 gave: TNF reporter robust z-score -0.29.
